Data on 1 molecule can be found in the supplement of paper PMC8728848.

The list shows a part of the results.

What all share (experiment): glycan array binding signal (z-score within array); higher = stronger binding
What all share (conditions): glycan notation: IUPAC condensed, linker removed

In experiment [1] the target is Gal(b1-4)GlcNAc(b1-2)[Gal(b1-4)GlcNAc(b1-6)]Man(a1-6)[GlcNAc(b1-4)][Gal(b1-4)GlcNAc(b1-2)Man(a1-3)]Man(b1-4)GlcNAc(b1-4)GlcNAc. The method in brief:
(§1)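 Glycan array binding is given as a within-array Z-score, which can be read as non-binding when negative. The arrays, 3228 of them, came from the Consortium for Functional Glycomics database and were retained only where the protein sequence was available. Z-scores were averaged across arrays of the same protein sequence at different concentrations or buffers and across linkers.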

For experiment [2], the target named is Gal(b1-4)GlcNAc(b1-2)[Gal(b1-4)GlcNAc(b1-6)]Man(a1-6)[GlcNAc(b1-4)][Gal(b1-4)GlcNAc(b1-2)[Gal(b1-4)GlcNAc(b1-4)]Man(a1-3)]Man(b1-4)GlcNAc(b1-4)[Fuc(a1-6)]GlcNAc. The method in brief: as §1
The target in experiment [3] is Gal(b1-4)GlcNAc(b1-3)Gal(b1-3)GalNAc. A digest of the protocol:
as §1

The target of experiment [4] is Gal(b1-4)GlcNAc(b1-3)Gal(b1-3)GlcNAc. A digest of the protocol:
as §1

Experiment [5] addresses Gal(b1-4)GlcNAc(b1-3)Gal(b1-4)Glc. A digest of the protocol:
as §1

Experiment [6] concerns the target Gal(b1-4)GlcNAc(b1-3)Gal(b1-4)GlcNAc. A digest of the protocol:
as §1

The target of experiment [7] is Gal(b1-4)GlcNAc(b1-3)Gal(b1-4)GlcNAc(b1-2)Man(a1-3)[Gal(b1-4)GlcNAc(b1-3)Gal(b1-4)GlcNAc(b1-2)Man(a1-6)]Man(b1-4)GlcNAc(b1-4)GlcNAc. A digest of the protocol: as §1
The target of experiment [8] is Gal(b1-4)GlcNAc(b1-3)Gal(b1-4)GlcNAc(b1-2)Man(a1-3)[Gal(b1-4)GlcNAc(b1-3)Gal(b1-4)GlcNAc(b1-2)Man(a1-6)]Man(b1-4)GlcNAc(b1-4)[Fuc(a1-6)]GlcNAc. The method in brief: as §1
Experiment [9] concerns the target Gal(b1-4)GlcNAc(b1-3)Gal(b1-4)GlcNAc(b1-2)[Gal(b1-4)GlcNAc(b1-3)Gal(b1-4)GlcNAc(b1-6)]Man(a1-6)[Gal(b1-4)GlcNAc(b1-3)Gal(b1-4)GlcNAc(b1-2)Man(a1-3)]Man(b1-4)GlcNAc(b1-4)GlcNAc. A digest of the protocol: as §1
In experiment [10] the target is Gal(b1-4)GlcNAc(b1-3)Gal(b1-4)GlcNAc(b1-2)[Gal(b1-4)GlcNAc(b1-3)Gal(b1-4)GlcNAc(b1-6)]Man(a1-6)[Gal(b1-4)GlcNAc(b1-3)Gal(b1-4)GlcNAc(b1-2)Man(a1-3)]Man(b1-4)GlcNAc(b1-4)[Fuc(a1-6)]GlcNAc. A digest of the protocol: as §1
For experiment [11], the target named is Gal(b1-4)GlcNAc(b1-3)Gal(b1-4)GlcNAc(b1-3)Gal(b1-4)GlcNAc. A digest of the protocol:
as §1

The target in experiment [12] is Gal(b1-4)GlcNAc(b1-3)Gal(b1-4)GlcNAc(b1-3)Gal(b1-4)GlcNAc(b1-2)Man(a1-3)[Gal(b1-4)GlcNAc(b1-3)Gal(b1-4)GlcNAc(b1-3)Gal(b1-4)GlcNAc(b1-2)Man(a1-6)]Man(b1-4)GlcNAc(b1-4)GlcNAc. The method in brief:
as §1

The target of experiment [13] is Gal(b1-4)GlcNAc(b1-3)Gal(b1-4)GlcNAc(b1-3)Gal(b1-4)GlcNAc(b1-2)Man(a1-3)[Gal(b1-4)GlcNAc(b1-3)Gal(b1-4)GlcNAc(b1-3)Gal(b1-4)GlcNAc(b1-2)Man(a1-6)]Man(b1-4)GlcNAc(b1-4)[Fuc(a1-6)]GlcNAc. The method in brief:
as §1

In experiment [14] the target is Gal(b1-4)GlcNAc(b1-3)Gal(b1-4)GlcNAc(b1-3)Gal(b1-4)GlcNAc(b1-2)[Gal(b1-4)GlcNAc(b1-3)Gal(b1-4)GlcNAc(b1-3)Gal(b1-4)GlcNAc(b1-6)]Man(a1-6)[Gal(b1-4)GlcNAc(b1-3)Gal(b1-4)GlcNAc(b1-3)Gal(b1-4)GlcNAc(b1-2)Man(a1-3)]Man(b1-4)GlcNAc(b1-4)[Fuc(a1-6)]GlcNAc. The method in brief: as §1
In experiment [15] the target is Gal(b1-4)GlcNAc(b1-3)Gal(b1-4)GlcNAc(b1-3)Gal(b1-4)GlcNAc(b1-3)Gal(b1-4)GlcNAc(b1-2)Man(a1-3)[Gal(b1-4)GlcNAc(b1-3)Gal(b1-4)GlcNAc(b1-3)Gal(b1-4)GlcNAc(b1-3)Gal(b1-4)GlcNAc(b1-2)Man(a1-6)]Man(b1-4)GlcNAc(b1-4)GlcNAc. A digest of the protocol: as §1
Experiment [16] deals with Gal(b1-4)GlcNAc(b1-3)Gal(b1-4)GlcNAc(b1-3)Gal(b1-4)GlcNAc(b1-3)Gal(b1-4)GlcNAc(b1-2)Man(a1-3)[Gal(b1-4)GlcNAc(b1-3)Gal(b1-4)GlcNAc(b1-3)Gal(b1-4)GlcNAc(b1-3)Gal(b1-4)GlcNAc(b1-2)Man(a1-6)]Man(b1-4)GlcNAc(b1-4)[Fuc(a1-6)]GlcNAc. A digest of the protocol: as §1
The target of experiment [17] is Gal(b1-4)GlcNAc(b1-3)Gal(b1-4)GlcNAc(b1-3)Gal(b1-4)GlcNAc(b1-3)Gal(b1-4)GlcNAc(b1-2)[Gal(b1-4)GlcNAc(b1-3)Gal(b1-4)GlcNAc(b1-3)Gal(b1-4)GlcNAc(b1-3)Gal(b1-4)GlcNAc(b1-6)]Man(a1-6)[Gal(b1-4)GlcNAc(b1-3)Gal(b1-4)GlcNAc(b1-3)Gal(b1-4)GlcNAc(b1-3)Gal(b1-4)GlcNAc(b1-2)Man(a1-3)]Man(b1-4)GlcNAc(b1-4)[Fuc(a1-6)]GlcNAc. A digest of the protocol:
as §1

Experiment [18] concerns the target Gal(b1-4)GlcNAc(b1-3)Gal(b1-4)GlcNAc(b1-3)Gal(b1-4)GlcNAc(b1-3)Gal(b1-4)GlcNAc(b1-3)Gal(b1-4)GlcNAc(b1-2)Man(a1-3)[Gal(b1-4)GlcNAc(b1-3)Gal(b1-4)GlcNAc(b1-3)Gal(b1-4)GlcNAc(b1-3)Gal(b1-4)GlcNAc(b1-3)Gal(b1-4)GlcNAc(b1-2)Man(a1-6)]Man(b1-4)GlcNAc(b1-4)GlcNAc. The method in brief: as §1
For experiment [19], the target named is Gal(b1-4)GlcNAc(b1-3)Gal(b1-4)GlcNAc(b1-3)Gal(b1-4)GlcNAc(b1-3)Gal(b1-4)GlcNAc(b1-3)Gal(b1-4)GlcNAc(b1-2)Man(a1-3)[Gal(b1-4)GlcNAc(b1-3)Gal(b1-4)GlcNAc(b1-3)Gal(b1-4)GlcNAc(b1-3)Gal(b1-4)GlcNAc(b1-3)Gal(b1-4)GlcNAc(b1-2)Man(a1-6)]Man(b1-4)GlcNAc(b1-4)[Fuc(a1-6)]GlcNAc. A digest of the protocol: as §1
The target in experiment [20] is Gal(b1-4)GlcNAc(b1-3)Gal(b1-4)GlcNAc(b1-3)Gal(b1-4)GlcNAc(b1-3)Gal(b1-4)GlcNAc(b1-3)Gal(b1-4)GlcNAc(b1-2)[Gal(b1-4)GlcNAc(b1-3)Gal(b1-4)GlcNAc(b1-3)Gal(b1-4)GlcNAc(b1-3)Gal(b1-4)GlcNAc(b1-3)Gal(b1-4)GlcNAc(b1-6)]Man(a1-6)[Gal(b1-4)GlcNAc(b1-3)Gal(b1-4)GlcNAc(b1-3)Gal(b1-4)GlcNAc(b1-3)Gal(b1-4)GlcNAc(b1-3)Gal(b1-4)GlcNAc(b1-2)Man(a1-3)]Man(b1-4)GlcNAc(b1-4)[Fuc(a1-6)]GlcNAc. A digest of the protocol: as §1

Experiment [21] has as its target Gal(b1-4)GlcNAc(b1-3)Gal(b1-4)GlcNAc(b1-3)Gal(b1-4)GlcNAc(b1-3)Gal(b1-4)GlcNAc(b1-3)Gal(b1-4)GlcNAc(b1-3)Gal(b1-4)GlcNAc(b1-2)Man(a1-3)[Gal(b1-4)GlcNAc(b1-3)Gal(b1-4)GlcNAc(b1-3)Gal(b1-4)GlcNAc(b1-3)Gal(b1-4)GlcNAc(b1-3)Gal(b1-4)GlcNAc(b1-3)Gal(b1-4)GlcNAc(b1-2)Man(a1-6)]Man(b1-4)GlcNAc(b1-4)GlcNAc. A digest of the protocol:
as §1

Experiment [22] deals with Gal(b1-4)GlcNAc(b1-3)Gal(b1-4)GlcNAc(b1-3)GalNAc. A digest of the protocol: as §1
For experiment [23], the target named is Gal(b1-4)GlcNAc(b1-3)Gal(b1-4)GlcNAc(b1-3)[Gal(b1-4)GlcNAc(b1-3)Gal(b1-4)GlcNAc(b1-6)]GalNAc. The method in brief:
as §1

B1: LlpB (Pseudomonas fluorescens) (protein)
chain: MGSSHHHHHHSSGLVPRGSHMASSGFRIILFNSANNGTAILPPRNCLVAGQYLESPSKRYKLILEADGNLRLYDNGVPIWVADSSVPYTYVDNRPNTNLVTCFYMQGSAFLVDRVGSRTWATIGDWIDGAADRAYLQVQDDGNVVVVDGVPRWARFGFTPAALPNRGVFYPDHGTGPLPSFPVWSWTF
Turning to B1, the “glycan array binding signal (z-score)” value in experiment [1] was -0.05; in experiment [2] it was -1.73; in experiment [3], -0.092; in experiment [4], -0.608; in experiment [5], -0.591; in [6], -1.25. Besides, the “glycan array binding signal (z-score)” value in experiment [7] is 0.719; in experiment [8], 2.2; in experiment [9], 1.42; in [10] it was 1.14; in experiment [11], -0.221; in [12] it was 1.15. The “glycan array binding signal (z-score)” value in [13] is 2.11; in [14], -0.2; in [15], 0.173; in experiment [16], 0.256; in [17], 0.773; in [18], -0.635. Also, the “glycan array binding signal (z-score)” value was 0.04 in experiment [19]; 1.86 in [20]; -0.541 in experiment [21]; 1.16 in [22]; 2.19 in experiment [23].
